Measurements as given in the supplement of paper PMC10849652.
The list shows a part of the results.

Protein sequences, listed by entry. Tags and fused reporters are not part of them. Lines headed by an entry give the natural chain unless they say otherwise; changes in a name come on top.
UniProt Q16621: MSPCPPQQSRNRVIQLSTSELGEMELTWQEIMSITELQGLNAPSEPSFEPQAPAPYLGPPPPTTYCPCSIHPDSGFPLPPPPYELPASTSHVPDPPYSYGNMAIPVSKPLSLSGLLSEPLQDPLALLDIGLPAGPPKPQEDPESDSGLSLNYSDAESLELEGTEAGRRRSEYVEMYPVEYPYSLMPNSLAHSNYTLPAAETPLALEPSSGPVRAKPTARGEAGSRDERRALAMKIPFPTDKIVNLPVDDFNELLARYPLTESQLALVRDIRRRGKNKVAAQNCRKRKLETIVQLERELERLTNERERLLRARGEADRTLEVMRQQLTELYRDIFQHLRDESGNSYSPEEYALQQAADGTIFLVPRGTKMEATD
UniProt Q5JS37: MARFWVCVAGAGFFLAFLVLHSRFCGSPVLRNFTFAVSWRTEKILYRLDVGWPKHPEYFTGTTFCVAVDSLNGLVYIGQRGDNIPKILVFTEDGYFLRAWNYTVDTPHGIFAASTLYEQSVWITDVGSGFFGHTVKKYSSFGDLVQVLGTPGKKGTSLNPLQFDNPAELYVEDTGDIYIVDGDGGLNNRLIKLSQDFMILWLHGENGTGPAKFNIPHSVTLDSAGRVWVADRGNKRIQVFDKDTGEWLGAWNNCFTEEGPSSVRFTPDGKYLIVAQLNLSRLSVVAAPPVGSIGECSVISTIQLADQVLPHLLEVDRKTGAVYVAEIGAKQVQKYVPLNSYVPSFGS
UniProt Q13952: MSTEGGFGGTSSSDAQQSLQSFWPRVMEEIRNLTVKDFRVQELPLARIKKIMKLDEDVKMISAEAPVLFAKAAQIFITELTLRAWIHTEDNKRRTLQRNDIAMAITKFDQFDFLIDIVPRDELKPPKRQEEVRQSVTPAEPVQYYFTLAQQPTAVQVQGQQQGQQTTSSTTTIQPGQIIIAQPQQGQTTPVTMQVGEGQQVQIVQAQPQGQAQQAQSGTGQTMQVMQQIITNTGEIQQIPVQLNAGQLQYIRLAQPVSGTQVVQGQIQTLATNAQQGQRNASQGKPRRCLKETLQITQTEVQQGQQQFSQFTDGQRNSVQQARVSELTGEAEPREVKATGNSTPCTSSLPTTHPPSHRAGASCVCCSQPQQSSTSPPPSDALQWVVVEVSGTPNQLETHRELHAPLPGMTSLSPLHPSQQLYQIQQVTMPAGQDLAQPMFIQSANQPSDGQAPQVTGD
UniProt Q9UHB4: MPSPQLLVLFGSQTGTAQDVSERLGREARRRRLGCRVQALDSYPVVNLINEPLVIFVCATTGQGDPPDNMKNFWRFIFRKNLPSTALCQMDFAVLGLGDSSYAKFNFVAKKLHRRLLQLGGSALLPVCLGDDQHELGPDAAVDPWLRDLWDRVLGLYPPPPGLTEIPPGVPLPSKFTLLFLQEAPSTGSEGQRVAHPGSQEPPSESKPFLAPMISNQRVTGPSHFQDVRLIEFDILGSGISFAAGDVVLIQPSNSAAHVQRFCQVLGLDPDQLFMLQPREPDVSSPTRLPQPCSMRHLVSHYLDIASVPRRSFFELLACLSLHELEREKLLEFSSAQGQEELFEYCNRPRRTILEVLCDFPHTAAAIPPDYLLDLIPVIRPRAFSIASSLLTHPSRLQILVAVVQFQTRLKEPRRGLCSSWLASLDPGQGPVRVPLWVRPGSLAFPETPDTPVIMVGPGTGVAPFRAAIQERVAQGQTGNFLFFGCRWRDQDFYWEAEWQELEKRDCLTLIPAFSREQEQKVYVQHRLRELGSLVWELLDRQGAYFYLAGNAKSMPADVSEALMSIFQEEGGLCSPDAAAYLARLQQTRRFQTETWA
UniProt Q15653: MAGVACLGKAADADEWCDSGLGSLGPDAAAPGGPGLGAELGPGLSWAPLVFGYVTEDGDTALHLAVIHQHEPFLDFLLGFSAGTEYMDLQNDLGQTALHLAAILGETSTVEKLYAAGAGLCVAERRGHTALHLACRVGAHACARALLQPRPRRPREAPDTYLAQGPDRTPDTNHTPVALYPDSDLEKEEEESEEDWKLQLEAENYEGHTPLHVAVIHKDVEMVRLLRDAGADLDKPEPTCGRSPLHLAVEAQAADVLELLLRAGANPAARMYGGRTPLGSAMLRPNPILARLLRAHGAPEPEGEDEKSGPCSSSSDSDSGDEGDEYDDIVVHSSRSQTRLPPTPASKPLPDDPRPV
UniProt Q8NC96: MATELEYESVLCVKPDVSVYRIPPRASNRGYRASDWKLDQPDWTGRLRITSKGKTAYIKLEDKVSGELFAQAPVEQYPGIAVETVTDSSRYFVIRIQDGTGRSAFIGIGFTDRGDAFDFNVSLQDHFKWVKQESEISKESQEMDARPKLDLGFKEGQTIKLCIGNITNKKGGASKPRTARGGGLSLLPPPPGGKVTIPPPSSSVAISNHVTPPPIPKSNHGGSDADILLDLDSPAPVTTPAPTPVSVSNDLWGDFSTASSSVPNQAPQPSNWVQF
UniProt Q16795, whole entry, looked up: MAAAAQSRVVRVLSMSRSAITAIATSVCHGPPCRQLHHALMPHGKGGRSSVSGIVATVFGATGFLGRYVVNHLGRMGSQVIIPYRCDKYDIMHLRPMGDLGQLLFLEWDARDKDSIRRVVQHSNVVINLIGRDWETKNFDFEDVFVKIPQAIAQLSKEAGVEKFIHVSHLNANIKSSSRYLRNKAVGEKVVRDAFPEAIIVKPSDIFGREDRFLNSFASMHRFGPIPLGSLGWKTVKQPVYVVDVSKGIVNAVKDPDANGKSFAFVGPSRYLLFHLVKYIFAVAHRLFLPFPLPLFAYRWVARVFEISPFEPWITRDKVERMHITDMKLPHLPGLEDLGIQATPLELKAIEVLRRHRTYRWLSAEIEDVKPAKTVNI
UniProt Q9Y697: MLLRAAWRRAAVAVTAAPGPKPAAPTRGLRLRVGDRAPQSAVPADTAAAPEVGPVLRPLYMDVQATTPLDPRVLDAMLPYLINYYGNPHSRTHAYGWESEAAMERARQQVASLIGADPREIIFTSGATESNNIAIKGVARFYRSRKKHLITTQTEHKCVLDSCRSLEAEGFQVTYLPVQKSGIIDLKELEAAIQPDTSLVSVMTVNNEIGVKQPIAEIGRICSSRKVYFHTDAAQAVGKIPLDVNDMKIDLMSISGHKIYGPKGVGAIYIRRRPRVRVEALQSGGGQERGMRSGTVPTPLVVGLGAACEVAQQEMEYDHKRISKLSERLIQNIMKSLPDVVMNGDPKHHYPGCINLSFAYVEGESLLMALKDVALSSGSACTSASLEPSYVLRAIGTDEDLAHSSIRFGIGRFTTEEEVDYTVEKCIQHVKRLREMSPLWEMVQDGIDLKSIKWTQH
UniProt Q6ZNB6: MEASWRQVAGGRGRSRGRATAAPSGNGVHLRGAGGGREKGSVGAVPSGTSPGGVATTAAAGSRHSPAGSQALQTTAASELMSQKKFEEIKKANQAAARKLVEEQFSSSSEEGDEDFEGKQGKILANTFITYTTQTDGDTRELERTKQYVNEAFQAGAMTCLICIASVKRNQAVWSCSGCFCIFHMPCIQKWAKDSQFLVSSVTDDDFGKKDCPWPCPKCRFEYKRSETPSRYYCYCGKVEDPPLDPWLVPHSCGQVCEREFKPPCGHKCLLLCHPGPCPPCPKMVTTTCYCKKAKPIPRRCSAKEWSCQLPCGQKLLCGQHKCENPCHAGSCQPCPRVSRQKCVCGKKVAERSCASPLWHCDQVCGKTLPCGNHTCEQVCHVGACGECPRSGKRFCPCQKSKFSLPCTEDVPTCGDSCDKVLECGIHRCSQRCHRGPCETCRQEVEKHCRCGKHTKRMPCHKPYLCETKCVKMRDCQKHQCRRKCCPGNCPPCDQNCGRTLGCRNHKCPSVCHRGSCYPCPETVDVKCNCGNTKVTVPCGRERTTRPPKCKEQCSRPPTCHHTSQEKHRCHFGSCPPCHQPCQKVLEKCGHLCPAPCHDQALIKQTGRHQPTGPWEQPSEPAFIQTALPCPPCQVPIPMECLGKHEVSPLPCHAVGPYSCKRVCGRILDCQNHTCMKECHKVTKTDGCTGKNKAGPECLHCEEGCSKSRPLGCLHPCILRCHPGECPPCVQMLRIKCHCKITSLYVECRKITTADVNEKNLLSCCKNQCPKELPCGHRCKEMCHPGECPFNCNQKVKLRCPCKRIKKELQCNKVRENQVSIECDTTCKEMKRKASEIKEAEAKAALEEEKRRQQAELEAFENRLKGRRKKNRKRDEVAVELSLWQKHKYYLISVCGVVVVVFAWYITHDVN
UniProt P17568, whole entry, looked up: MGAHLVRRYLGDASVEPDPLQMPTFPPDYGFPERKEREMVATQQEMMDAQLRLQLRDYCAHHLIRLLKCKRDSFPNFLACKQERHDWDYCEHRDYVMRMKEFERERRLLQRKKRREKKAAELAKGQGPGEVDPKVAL
UniProt Q9NYR9: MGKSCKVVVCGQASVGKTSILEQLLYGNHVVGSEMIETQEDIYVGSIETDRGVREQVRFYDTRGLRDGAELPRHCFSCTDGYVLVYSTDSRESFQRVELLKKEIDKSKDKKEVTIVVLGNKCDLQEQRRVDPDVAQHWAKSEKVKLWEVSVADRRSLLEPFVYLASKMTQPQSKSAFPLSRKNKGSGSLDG
UniProt Q9BYG3: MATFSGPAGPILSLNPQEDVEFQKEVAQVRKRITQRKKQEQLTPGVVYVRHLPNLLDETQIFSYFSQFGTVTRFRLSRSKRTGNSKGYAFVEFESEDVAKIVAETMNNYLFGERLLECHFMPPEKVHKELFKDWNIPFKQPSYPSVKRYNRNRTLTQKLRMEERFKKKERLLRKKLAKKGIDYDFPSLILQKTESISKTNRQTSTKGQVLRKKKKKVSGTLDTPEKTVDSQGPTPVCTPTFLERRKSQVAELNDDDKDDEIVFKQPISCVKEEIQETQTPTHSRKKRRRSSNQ
UniProt O95169, whole entry, looked up: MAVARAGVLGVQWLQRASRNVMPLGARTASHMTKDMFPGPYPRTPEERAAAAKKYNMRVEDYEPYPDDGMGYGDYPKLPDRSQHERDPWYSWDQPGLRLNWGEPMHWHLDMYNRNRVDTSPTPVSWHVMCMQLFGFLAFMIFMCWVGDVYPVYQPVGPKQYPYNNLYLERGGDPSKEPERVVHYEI
UniProt Q8IXH7, whole entry, looked up: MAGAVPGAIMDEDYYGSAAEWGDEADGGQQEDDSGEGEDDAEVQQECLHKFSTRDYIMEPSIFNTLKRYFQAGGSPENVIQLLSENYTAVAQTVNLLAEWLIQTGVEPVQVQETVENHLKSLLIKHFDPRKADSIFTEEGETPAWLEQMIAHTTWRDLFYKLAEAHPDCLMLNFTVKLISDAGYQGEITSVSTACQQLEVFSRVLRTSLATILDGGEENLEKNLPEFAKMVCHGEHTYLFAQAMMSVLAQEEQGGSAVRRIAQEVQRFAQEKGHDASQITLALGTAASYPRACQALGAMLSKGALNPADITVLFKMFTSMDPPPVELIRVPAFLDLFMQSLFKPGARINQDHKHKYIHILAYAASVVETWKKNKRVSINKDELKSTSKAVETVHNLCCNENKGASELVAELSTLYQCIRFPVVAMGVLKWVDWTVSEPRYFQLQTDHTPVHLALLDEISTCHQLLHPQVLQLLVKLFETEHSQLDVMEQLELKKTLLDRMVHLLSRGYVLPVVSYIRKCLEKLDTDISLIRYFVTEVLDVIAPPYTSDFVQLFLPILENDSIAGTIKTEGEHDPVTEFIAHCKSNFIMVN
UniProt O43676, whole entry, looked up: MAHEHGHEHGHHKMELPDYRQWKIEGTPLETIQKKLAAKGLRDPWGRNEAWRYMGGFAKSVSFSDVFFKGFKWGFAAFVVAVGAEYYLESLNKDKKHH
UniProt Q9NVX2: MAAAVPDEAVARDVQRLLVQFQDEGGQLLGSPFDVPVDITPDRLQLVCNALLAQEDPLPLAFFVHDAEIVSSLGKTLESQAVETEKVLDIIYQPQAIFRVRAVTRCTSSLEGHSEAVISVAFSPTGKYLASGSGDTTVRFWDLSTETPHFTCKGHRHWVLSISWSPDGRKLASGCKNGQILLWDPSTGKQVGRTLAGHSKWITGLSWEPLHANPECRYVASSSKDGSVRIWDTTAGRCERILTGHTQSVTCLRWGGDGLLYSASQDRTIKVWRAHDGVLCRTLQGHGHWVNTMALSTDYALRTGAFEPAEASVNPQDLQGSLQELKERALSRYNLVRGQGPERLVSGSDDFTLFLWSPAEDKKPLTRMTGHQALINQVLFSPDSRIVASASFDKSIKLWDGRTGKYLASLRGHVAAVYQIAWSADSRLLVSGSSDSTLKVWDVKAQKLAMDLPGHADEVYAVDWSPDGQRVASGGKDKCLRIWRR
UniProt Q9UGV2: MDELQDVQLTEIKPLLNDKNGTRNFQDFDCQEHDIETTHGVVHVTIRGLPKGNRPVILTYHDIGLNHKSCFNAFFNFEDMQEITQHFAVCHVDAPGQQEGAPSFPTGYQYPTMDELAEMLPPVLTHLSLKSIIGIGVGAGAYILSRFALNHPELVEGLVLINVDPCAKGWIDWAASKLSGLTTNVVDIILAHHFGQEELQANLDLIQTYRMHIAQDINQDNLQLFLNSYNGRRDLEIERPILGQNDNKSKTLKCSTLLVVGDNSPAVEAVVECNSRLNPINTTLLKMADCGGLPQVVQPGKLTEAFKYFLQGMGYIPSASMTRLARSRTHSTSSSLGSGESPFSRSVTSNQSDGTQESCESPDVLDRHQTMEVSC
UniProt O95167, whole entry, looked up: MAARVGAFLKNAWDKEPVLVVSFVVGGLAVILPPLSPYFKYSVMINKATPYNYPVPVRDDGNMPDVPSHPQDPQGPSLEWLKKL

How the values were obtained:
Experiment in all cases: log2 fold change, soluble protein after heating vs DMSO (PISA); higher = thermal stabilisation; K562 lysate, 10 uM; active = over 0.2 and 3.5 SD of the protein, either way, in both replicates (recomputed)
alvocidib = compound: CN1CC[C@H](c2c(O)cc(O)c3c(=O)cc(-c4ccccc4Cl)oc23)[C@H](O)C1 [alvocidib]
In short: (§1)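 Values give the log-two fold change in thermal stability against solvent controls, from duplicates. Crude K562 extract at 1 mg/mL protein, made by dounce homogenisation in PBS pH 7.4 with 1 mM MgCl2, was treated with 10 μM compound for 30 min. After 3 min heating across 48°C-58°C, aliquots were pooled, adjusted to 0.5% NP-40 at 4°C and centrifuged at 21,000xg for 90 min. The supernatant was measured by TMTpro 16plex LC-MS/MS with channel sums equalised.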

Tubastatin A = compound: CN1CCc2c(c3ccccc3n2Cc2ccc(C(=O)NO)cc2)C1 [Tubastatin A]
In short: as §1

[1] = compound: CNC(=O)C1=CC=CC=C1NC2=NC(=NC=C2Cl)NC3=C(C=C(C=C3)N4CCOCC4)OC
In short: as §1

defactinib = compound: CNC(=O)c1ccc(Nc2ncc(C(F)(F)F)c(NCc3nccnc3N(C)S(C)(=O)=O)n2)cc1 [defactinib]
In short: as §1

[2] = compound: CNc1nc(-c2ccc3c(N)n[nH]c3c2)cc(N2C[C@@H](C(=O)NC3CCCCC3)CC[C@H]2C)n1
In short: as §1

encorafenib = compound: COC(=O)N[C@@H](C)CNc1nccc(-c2cn(C(C)C)nc2-c2cc(Cl)cc(NS(C)(=O)=O)c2F)n1 [encorafenib]
In short: as §1

[3] = compound: COC(=O)[C@H](CCSC)NC(=O)C1=C(C=C(C=C1)NC[C@H](CS)N)C2=CC=CC=C2
In short: as §1

alisertib = compound: COc1cc(Nc2ncc3c(n2)-c2ccc(Cl)cc2C(c2c(F)cccc2OC)=NC3)ccc1C(=O)O [alisertib]
In short: as §1

[4] = compound: COc1cc2nc(-c3cc(F)ccc3O)nc(N[C@@H]3CNC[C@H]3C(C)(C)O)c2cc1OC
In short: as §1

gefitinib = compound: COc1cc2ncnc(Nc3ccc(F)c(Cl)c3)c2cc1OCCCN1CCOCC1 [gefitinib]
In short: as §1

Measured: log2 fold change

NFE2 (UniProt Q16621)
inactive: alvocidib -0.017 | Tubastatin A -0.072 | [1] 0.002 | defactinib 0.059 | [2] -0.013 | encorafenib 0.032 | [3] -0.093 | alisertib -0.005 | [4] -0.006 | gefitinib 0.043

NHLRC3 (UniProt Q5JS37)
inactive: alvocidib -0.005 | Tubastatin A 0.062 | [1] 0.069 | defactinib -0.069 | [2] -0.059 | encorafenib 0 | [3] 0.006 | alisertib 0.034 | [4] 0.006 | gefitinib 0.08

NDUFB11 isoform 2 (UniProt Q9NX14)
inactive: alvocidib 0.035 | Tubastatin A 0.09 | [1] -0.003 | defactinib 0.014 | [2] 0.048 | encorafenib 0 | [3] -0.087 | alisertib 0.03 | [4] -0.021 | gefitinib -0.117

NFYC (UniProt Q13952)
inactive: alvocidib -0.058 | Tubastatin A 0.055 | [1] 0.019 | defactinib -0.025 | [2] 0.026 | encorafenib 0.025 | [3] -0.03 | alisertib -0.012 | [4] -0.01 | gefitinib 0.029

NDOR1 isoform 2 (UniProt Q9UHB4)
inactive: alvocidib -0.006 | Tubastatin A 0.005 | [1] 0.032 | defactinib 0.042 | [2] 0.003 | encorafenib 0.011 | [3] -0.067 | alisertib -0.043 | [4] 0.036 | gefitinib -0.031

NFKBIB (UniProt Q15653)
inactive: alvocidib -0.146 | Tubastatin A -0.077 | [1] 0.053 | defactinib -0.007 | [2] -0.006 | encorafenib 0.006 | [3] 0.06 | alisertib 0 | [4] -0.031 | gefitinib 0.064

NDUFAF5 (UniProt Q5TEU4)
inactive: alvocidib -0.004 | Tubastatin A 0.12 | [1] -0.068 | defactinib -0.047 | [2] 0.175 | encorafenib 0.18 | [3] -0.065 | [4] -0.033

NECAP1 (UniProt Q8NC96)
inactive: alvocidib -0.023 | Tubastatin A 0.067 | [1] 0.045 | defactinib -0.009 | [2] -0.016 | encorafenib 0.025 | [3] -0.014 | alisertib 0.036 | [4] -0.012 | gefitinib 0.005

NDUFA9 (UniProt Q16795)
inactive: alvocidib 0.029 | Tubastatin A 0.158 | [1] -0.039 | defactinib -0.037 | [2] -0.044 | encorafenib -0.026 | [3] 0.068 | alisertib 0.038 | [4] -0.09 | gefitinib -0.037

NDUFA8 (UniProt P51970)
inactive: alvocidib 0.017 | Tubastatin A 0.04 | [1] 0 | defactinib -0.013 | [2] -0.005 | encorafenib -0.077 | [3] -0.142 | alisertib -0.018 | [4] -0.046 | gefitinib 0.166

NELFB isoform 2 (UniProt Q8WX92)
inactive: alvocidib -0.012 | Tubastatin A -0.057 | [1] 0.017 | defactinib -0.032 | [2] 0.015 | encorafenib 0.015 | [3] 0.017 | alisertib -0.009 | [4] -0.014 | gefitinib -0.018

NIBAN2 (UniProt Q96TA1)
inactive: alvocidib 0.034 | Tubastatin A -0.009 | [1] 0.005 | defactinib 0.005 | [2] 0.01 | encorafenib 0.024 | [3] -0.046 | alisertib 0.004 | [4] 0.009 | gefitinib 0.015

NFS1 (UniProt Q9Y697)
inactive: alvocidib -0.032 | Tubastatin A 0.036 | [1] 0.011 | defactinib -0.008 | [2] 0.003 | encorafenib -0.028 | [3] -0.022 | alisertib 0.033 | [4] 0.009 | gefitinib -0.011

NFXL1 (UniProt Q6ZNB6)
inactive: alvocidib -0.086 | Tubastatin A 0.009 | [1] -0.038 | defactinib 0.042 | [2] 0.066 | encorafenib 0.013 | [3] -0.081 | alisertib 0.023 | [4] -0.01 | gefitinib -0.124

NDUFB7 (UniProt P17568)
inactive: alvocidib 0.022 | Tubastatin A 0.181 | [1] -0.007 | defactinib 0.012 | [2] 0.151 | encorafenib -0.038 | [3] -0.034 | alisertib 0.042 | [4] -0.044 | gefitinib -0.022

NKIRAS2 (UniProt Q9NYR9)
inactive: alvocidib -0.192 | Tubastatin A 0.113 | [1] -0.056 | defactinib 0.009 | [2] 0.145 | encorafenib 0.024 | [3] 0.046 | alisertib 0.062 | [4] -0.043 | gefitinib 0.074

NIPA2 (UniProt Q8N8Q9)
inactive: alvocidib -0.187 | Tubastatin A -0.021 | [1] -0.112 | defactinib -0.043 | [2] 0.074 | encorafenib -0.228 | [3] 0.336 | alisertib 0.012 | [4] 0.005 | gefitinib 0.057

NIFK (UniProt Q9BYG3)
inactive: alvocidib 0.009 | Tubastatin A -0.023 | [1] -0.023 | defactinib 0 | [2] 0.095 | encorafenib 0.039 | [3] -0.003 | alisertib -0.073 | [4] -0.014 | gefitinib 0.01

NDUFV3 (UniProt P56181)
inactive: alvocidib 0.008 | Tubastatin A 0.033 | [1] 0.029 | defactinib 0.002 | [2] 0.06 | encorafenib 0.106 | [3] -0.218 | alisertib 0.108 | [4] 0.028 | gefitinib -0.126

NDUFB8 (UniProt O95169)
inactive: alvocidib 0.025 | Tubastatin A 0.089 | [1] 0.069 | defactinib 0.105 | [2] 0.085 | encorafenib -0.03 | [3] -0.027 | alisertib 0.059 | [4] -0.033 | gefitinib -0.143

NEMF (UniProt O60524)
inactive: alvocidib 0.001 | Tubastatin A -0.03 | [1] -0.002 | defactinib 0.031 | [2] 0.047 | encorafenib 0.048 | [3] 0.032 | alisertib 0.038 | [4] -0.013 | gefitinib -0.003

NISCH (UniProt Q9Y2I1)
inactive: alvocidib 0.018 | Tubastatin A -0.044 | [1] 0.032 | defactinib 0.025 | [2] 0.005 | encorafenib 0.022 | [3] 0.016 | alisertib 0.019 | [4] -0.001 | gefitinib 0.01

Fetched one by one from the list above (2):
NHLRC3 (UniProt Q5JS37)
inactive: alvocidib -0.005 | Tubastatin A 0.062 | [1] 0.069 | defactinib -0.069 | [2] -0.059 | encorafenib 0 | [3] 0.006 | alisertib 0.034 | [4] 0.006 | gefitinib 0.08

NDUFAF5 (UniProt Q5TEU4)
inactive: alvocidib -0.004 | Tubastatin A 0.12 | [1] -0.068 | defactinib -0.047 | [2] 0.175 | encorafenib 0.18 | [3] -0.065 | [4] -0.033

Next part.

NELFCD (UniProt Q8IXH7)
inactive: alvocidib 0.015 | Tubastatin A -0.148 | [1] 0.047 | defactinib 0.041 | [2] -0.055 | encorafenib 0 | [3] 0.073 | alisertib 0.023 | [4] -0.006 | gefitinib -0.009

NDUFS2 (UniProt O75306)
inactive: alvocidib 0.047 | Tubastatin A -0.012 | [1] -0.033 | defactinib 0.005 | [2] -0.001 | encorafenib 0.012 | [3] -0.045 | alisertib -0.007 | [4] -0.022 | gefitinib -0.01

NDUFB3 (UniProt O43676)
inactive: alvocidib 0.069 | Tubastatin A -0.037 | [1] 0.007 | defactinib 0 | [2] -0.014 | encorafenib -0.015 | [3] -0.044 | alisertib 0.018 | [4] -0.012 | gefitinib -0.021

NLE1 (UniProt Q9NVX2)
inactive: alvocidib -0.01 | Tubastatin A -0.026 | [1] -0.002 | defactinib -0.031 | [2] -0.032 | encorafenib 0.033 | [3] -0.056 | alisertib 0.01 | [4] -0.005 | gefitinib -0.051

NDRG3 (UniProt Q9UGV2)
inactive: alvocidib 0.015 | Tubastatin A -0.033 | [1] 0.018 | defactinib -0.041 | [2] 0.014 | encorafenib -0.003 | [3] 0.055 | alisertib -0.002 | [4] 0.005 | gefitinib -0.049

NDUFA3 (UniProt O95167)
inactive: alvocidib 0.056 | Tubastatin A 0.066 | [1] -0.017 | defactinib -0.144 | [2] 0.055 | encorafenib 0.016 | [3] 0.045 | alisertib 0.094 | gefitinib -0.104

NEB isoform 3 (UniProt P20929)
inactive: alvocidib -0.133 | Tubastatin A 0.123 | [1] 0.021 | defactinib -0.095 | [2] 0.154 | alisertib 0.009 | [4] -0.151 | gefitinib -0.034

NFYA (UniProt P23511)
inactive: alvocidib 0.003 | Tubastatin A 0.027 | [1] 0.141 | defactinib 0.012 | [2] 0.086 | encorafenib 0.048 | [3] -0.011 | [4] -0.072
